From publication PMC6801678
These are yes or no findings as the source states them, for the method shown. Binding seen in cells or lysates may run through a third protein. Some binding calls cover weakened binding; strength is not graded here. Where a sequence is shown, tags or fusion partners need not be part of it.

Chains of the proteins cited; added tags and fusions are not shown. Lines headed by an entry give the natural chain unless they say otherwise; changes in a name come on top. Residues count along the entry.
UniProt Q8N4S9: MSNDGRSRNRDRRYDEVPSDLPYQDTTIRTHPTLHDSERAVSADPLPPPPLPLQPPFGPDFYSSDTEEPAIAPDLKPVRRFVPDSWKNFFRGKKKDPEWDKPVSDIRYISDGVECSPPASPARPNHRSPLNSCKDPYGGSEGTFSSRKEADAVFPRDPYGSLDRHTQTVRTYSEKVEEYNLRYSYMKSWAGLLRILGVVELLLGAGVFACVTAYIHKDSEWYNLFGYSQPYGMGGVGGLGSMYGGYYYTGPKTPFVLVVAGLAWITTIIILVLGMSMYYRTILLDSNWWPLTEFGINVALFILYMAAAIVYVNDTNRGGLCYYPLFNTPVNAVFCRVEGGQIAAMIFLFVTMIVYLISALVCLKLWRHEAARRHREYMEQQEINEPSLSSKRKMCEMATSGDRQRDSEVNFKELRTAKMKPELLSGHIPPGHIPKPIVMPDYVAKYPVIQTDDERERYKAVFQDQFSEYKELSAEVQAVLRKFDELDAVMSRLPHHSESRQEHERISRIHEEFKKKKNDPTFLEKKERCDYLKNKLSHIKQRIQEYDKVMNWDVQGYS
FLAG3-Tric∆487–558, tricellulin lacking amino acids 487–558: residues 1-486 of Q8N4S9
FLAG3-Tric∆441–558, tricellulin lacking amino acids 441–558: residues 1-440 of Q8N4S9

Key:
Assay in all cases: co-IP; HEK-293 cells co-transfected with FLAG3-tricellulin constructs and GFP-LSR, lysed 48 h after transfection in modified RIPA buffer; IP with anti-FLAG M2 and Protein A Sepharose at 4 °C; Western blot with anti-LSR and anti-FLAG
[1] = target: FLAG3-Tric∆441–558, tricellulin lacking amino acids 441–558 (human) (UniProt Q8N4S9)
[2] = target: FLAG3-Tric∆487–558, tricellulin lacking amino acids 487–558 (human) (UniProt Q8N4S9)
[3] = target: FLAG3-tagged human tricellulin, full length (human) (UniProt Q8N4S9)

B1: GFP-tagged lipolysis-stimulated lipoprotein receptor (LSR)/angulin-1 (protein, UniProt Q99KG5 36-594)
chain: AIQVTVPDPYHVVILFQPVTLHCTYQMSNTLTAPIVIWKYKSFCRDRVADAFSPASVDNQLNAQLAAGNPGYNPYVECQDSVRTVRVVATKQGNAVTLGDYYQGRRITITGNADLTFEQTAWGDSGVYYCSVVSAQDLDGNNEAYAELIVLGRTSEAPELLPGFRAGPLEDWLFVVVVCLASLLFFLLLGICWCQCCPHTCCCYVRCPCCPDKCCCPEALYAAGKAATSGVPSIYAPSIYTHLSPAKTPPPPPAMIPMRPPYGYPGDFDRTSSVGGHSSQVPLLREVDGSVSSEVRSGYRIQANQQDDSMRVLYYMEKELANFDPSRPGPPNGRVERAMSEVTSLHEDDWRSRPSRAPALTPIRDEEWNRHSPRSPRTWEQEPLQEQPRGGWGSGRPRARSVDALDDINRPGSTESGRSSPPSSGRRGRAYAPPRSRSRDDLYDPDDPRDLPHSRDPHYYDDLRSRDPRADPRSRQRSHDPRDAGFRSRDPQYDGRLLEEALKKKGAGERRRVYREEEEEEEEGHYPPAPPPYSETDSQASRERRMKKNLALSRESLVV
binding [1]: no binding | binding [2]: no binding | binding [3]: binds
